In PubChem BioAssay AID2551 (National Center for Advancing Translational Sciences (NCATS), 2010):
The campaign covered roughly 310,000 compounds. About 17,000 (5.5%) were called active. This list was built around the results that the source calls inconclusive (neither active nor inactive); the mix of calls is not that of the screen. Calls follow the shape of the dose curve; as a rule, active = well fitted inhibition curve with a large enough effect; inconclusive = small, poorly fitted or top-dose-only effect, or effect the other way; inactive = no such curve, though single readings can be large or run the other way. A potency beside an inconclusive call is a rough fit, not a confirmed value.

Chains of the proteins cited; added tags and fusions are not shown. Lines headed by an entry give the natural chain unless they say otherwise; changes in a name come on top.
UniProt P51450: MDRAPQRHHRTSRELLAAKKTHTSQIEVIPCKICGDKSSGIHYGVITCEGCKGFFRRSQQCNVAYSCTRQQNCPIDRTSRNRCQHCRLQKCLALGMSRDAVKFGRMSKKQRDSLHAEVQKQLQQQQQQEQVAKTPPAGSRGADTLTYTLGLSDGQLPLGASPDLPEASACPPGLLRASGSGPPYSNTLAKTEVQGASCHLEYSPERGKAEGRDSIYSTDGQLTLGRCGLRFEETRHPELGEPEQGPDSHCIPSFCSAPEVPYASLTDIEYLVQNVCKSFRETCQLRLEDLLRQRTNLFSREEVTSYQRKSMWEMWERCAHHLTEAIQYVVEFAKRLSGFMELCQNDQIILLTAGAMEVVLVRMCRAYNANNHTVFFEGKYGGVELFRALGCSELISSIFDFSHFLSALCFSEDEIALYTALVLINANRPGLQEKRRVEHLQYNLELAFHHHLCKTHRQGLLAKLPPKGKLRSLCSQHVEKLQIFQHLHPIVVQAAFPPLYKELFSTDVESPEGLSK

molecular target: Nuclear receptor ROR-gamma (Mus musculus) (UniProt P51450); test: qHTS for inhibitors of ROR gamma transcriptional activity; conditions: Drosophila S2 Gal4-RORgamma UAS-luciferase reporter, 20 h; activity change, negative = inhibition: at 53.6 µM (top of the series); also: nearly all actives have a fitted effect of over 60% in size
Procedure, shortened: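 Drosophila S2 cells stably expressing Gal4-DBD/mouse RORγ fusion under metallothionein promoter plus UAS-luciferase; compound 1 h, then 700 uM CuSO4 induction for 20 h at ambient temperature; inhibition read as reduced luminescence.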
% is scaled to controls: 0 for no effect and ±100 for the full control effect; potency is read from the fitted curve at half-maximal effect.

Activity change, negative = inhibition, inactive:
Cc1cccc(C)c1NC(=O)c1ccc([N+](=O)[O-])s1 -28.2% [at 10 µM]
COCCNC(=O)CN1C(=O)NC2(CCCc3ccccc32)C1=O (stereo not given) -23%
COc1cc(C(=O)N(Cc2cc3cc(C)ccc3[nH]c2=O)CC2CCCO2)cc(OC)c1OC (stereo not given) -23.6%
O=C(COC(=O)c1ccccc1O)NCCC1=CCCCC1 21%
CCOC(=O)c1cnc(-n2nc(C)cc2C)nc1Oc1ccc(C#N)cc1 0.887%
c1ccc(Cn2c(SCCN3CCOCC3)nnc2-c2cccnc2)cc1 44.3%
O=C(COC(=O)/C=C/c1ccccc1)Nc1cc(C(F)(F)F)ccc1N1CCOCC1 -6.83%
CC(=O)Nc1ccc(/C=C2\CCc3ccccc3C2=O)cc1 -44.6%
O=C(Nc1cccc(C(F)(F)F)c1)c1cc(-c2cccs2)on1 -4.99%
Cc1ccc(NNC(=O)c2c(C)noc2C)cc1Cl 11%
OC(CNCc1ccccc1)Cn1ccc2ccccc21 (stereo not given) 11%

Potency, active:
O=C(/C=C/c1ccco1)Nc1nc(-c2ccccn2)cs1 2.82 µM
CC1CCN(c2ccc(-c3ccc(NC(=O)C(F)(F)F)cc3)nn2)CC1 5.62 µM
CCOC(=O)C1=C(c2cccc(F)c2)NC(=S)NC1C (stereo not given) 14.1 µM
O=C(N/N=C1/CCCc2ccccc21)c1cc([N+](=O)[O-])cc([N+](=O)[O-])c1 11.2 µM
C=CCn1c(CCSCc2ccccc2)n[nH]c1=S 3.98 µM
Cc1onc(-c2ccccc2)c1C(=O)N/N=C/c1c[nH]c2ccccc12 2.82 µM
COc1ccc(-c2nnc(NC(=O)C(C)C)o2)cc1 11.2 µM
CC(C)c1ccc(NC(=S)N2CCCC2)cc1 10 µM
O=S(=O)(Nc1cccc2cccnc12)c1ccc2ccccc2c1 5.62 µM
CC(C)c1ccc(OCc2ccc(C(=O)O)o2)cc1 2.82 µM
CCn1c(CSc2nc3ccccc3s2)nc2ccccc21 10 µM
CCOC(=O)[C@@H]1[C@H]2COc3cc(OC)ccc3[C@@H]2N2C(=O)N(c3ccc(Br)cc3)C(=O)[C@@]12C 7.94 µM
S=c1[nH]ccn1Cc1ccccc1 11.2 µM
O=C(Nc1nccs1)c1sc2cc(Cl)ccc2c1Cl 0.501 µM

Potency, inconclusive:
COc1ccc(CN(C)C(=S)Nc2ccc(OC(F)F)cc2)cc1 22.4 µM [inhibitor, single point]
Cc1ccccc1Cn1nc(C)c(NC(=O)c2noc3c2CCCC3)c1C 14.1 µM [activator, single point]
c1ccc(CSc2ncnc3sccc23)cc1 35.5 µM [activator, single point]
Cc1cc2cc(CNC(=O)c3ccco3)ccc2n1C 0.794 µM [activator, single point]
Cc1c(NC(=O)c2cccc(-c3cc4ccccc4oc3=O)c2)cccc1-c1nc2ncccc2o1 6.31 µM [activator, partial curve]
CNc1nc(-c2ccc(N(C)C)cc2)nc2ccccc12 35.5 µM [inhibitor, single point]
COc1ccc(C2=CC(=O)C=CC2=O)cc1 20 µM [inhibitor, single point]
CCOc1ccc(C(=O)Nc2ccc3c(c2)OCCO3)cc1 11.2 µM [inhibitor, single point]
CCOC(=O)N1CCC(NC(=O)Cn2c3c(c(-c4ccccc4Cl)cc2=O)CCC3)CC1 35.5 µM [activator, single point]
CCOC(=O)c1[nH]cnc1C(=O)Nc1ccccn1 12.6 µM [activator, single point]
Cc1nn(CC#N)c(=O)n1-c1ccc(C(C)C)cc1 35.5 µM [activator, single point]
CC1(c2nnc(-c3ccncc3)o2)CC(c2c(Cl)cccc2Cl)=NO1 (stereo not given) 11.2 µM [inhibitor, partial curve, poor fit]
Cc1noc(C)c1C(=O)NC(C)C12CC3CC(CC(C3)C1)C2 (stereo not given) 3.55 µM [inhibitor, single point]
CCn1c(=O)c(C(=O)Nc2ccccc2S(N)(=O)=O)c(O)c2ccccc21 35.5 µM [activator, single point]
CCCc1cc(-c2n[nH]c(C(=O)OCC)c2-c2cscn2)c(O)cc1O 12.6 µM [activator, partial curve]
Cc1cc(C)cc(NC(=O)c2ccc(N3C(=O)C4CCCCC4C3=O)cc2)c1 (stereo not given) 14.1 µM [activator, partial curve, poor fit]
O=C1CC(N(CCc2ccccc2)C(=S)Nc2ccccc2)C(=O)N1c1ccccc1 (stereo not given) 17.8 µM [activator, single point]
Cc1cccc(NC(=O)Cn2c(/C=C/c3ccccc3)nc3ccccc32)c1 3.98 µM [activator, full curve, poor fit]
C/C(=N\NC(=O)CSCc1ccc([N+](=O)[O-])cc1)c1ccccc1 6.31 µM [activator, single point]
CCOc1ccc(-c2ccc(SC)nn2)cc1 35.5 µM [inhibitor, single point]
CCOC(=O)c1ccc(N2C(=O)C(CC(=O)NC)N(CCc3ccc(OC)c(OC)c3)C2=S)cc1 (stereo not given) 25.1 µM [inhibitor, single point]
Cc1cc(NC(=S)N(Cc2cccc(Br)c2)CC2CCC(C(=O)O)CC2)ccc1Cl (stereo not given) 10 µM [activator, single point]
Nc1nc2ccccc2n1CCOc1ccc(Cl)cc1 0.355 µM [inhibitor, partial curve]
Cc1ccc(N(C(=O)Cc2c[nH]c3ccccc23)C(C(=O)NC2CCCCC2)c2ccco2)cc1 (stereo not given) 0.501 µM [activator, full curve, poor fit]
CCOC(=O)c1c(C)[nH]c(C2=NNC(=Nc3ccccc3)SC2)c1C 10 µM [inhibitor, partial curve, poor fit]
COc1ccc(-c2nc(-c3cccs3)no2)cc1 1.78 µM [inhibitor, partial curve]
CCNC(=S)Nc1cccc(Cl)c1C 22.4 µM [inhibitor, single point]
Cc1ccc2c(CN(C)Cc3ccccc3)cc(=O)oc2c1C 17.8 µM [activator, single point]
CCCc1nc(NC(=O)c2ccccc2)nc(NC(=O)c2ccccc2)n1 8.91 µM [activator, partial curve]
CCCCCn1nc(C)c(/C=N\NC(=O)c2cc(C)oc2C)c1C 5.62 µM [activator, single point]
C/C(=C\c1ccc(C)o1)C(=O)c1c(C)cc(C)[nH]c1=O 15.8 µM [inhibitor, single point]
C/C(=N\NC(=O)c1ccccc1O)c1cccc(NC(=O)c2ccccc2)c1 35.5 µM [inhibitor, single point]
COc1ccc(O[C@H]2C=C[C@@H](c3ccccc3)O[C@@H]2COC(=O)CC/C(C)=N/O[C@H](C)c2cn([C@@H]3COC[C@H]3O)nn2)cc1 8.91 µM [activator, partial curve]
O=C(CSc1nnnn1-c1cccc(Cl)c1)Nc1ccc2c(c1)CCC2 7.94 µM [inhibitor, partial curve, poor fit]
O=C(Nc1ccc(Cl)cc1)NC1CCCCC1Cc1ccco1 (stereo not given) 35.5 µM [activator, single point]
COc1ccc(Oc2ncc3nc(C)c(=O)n(Cc4ccc(F)cc4)c3n2)cc1 11.2 µM [activator, partial curve, poor fit]
Cc1ccc(NC(=O)C2CCN(c3ncnc4c3nc3n4CCCCC3)CC2)cc1Cl 20 µM [activator, single point]
COc1cccc(/C=N/NC(=O)CN(CCc2ccccc2)S(=O)(=O)c2ccc(NC(C)=O)cc2)c1 15.8 µM [activator, single point]
CCOc1cc(C(=S)N2CCOCC2)ccc1OS(=O)(=O)c1ccc(Br)cc1 12.6 µM [activator, single point]
CC(=O)c1cccc(NC(=O)C2CCCCC2)c1 20 µM [inhibitor, single point]
O=C(CSc1nnc2c(Cl)cc(C(F)(F)F)cn12)NCc1ccc(F)cc1 22.4 µM [inhibitor, single point]
O=C(N/N=C/c1c(Cl)cccc1Cl)c1cccc(F)c1 17.8 µM [inhibitor, single point]
CCC1=C(OC(=O)N(CC)CC)N2C(=O)OC(=NCCc3c[nH]c4ccccc34)[C@]2(C)[C@H]2C1=CC[C@H]1C(=O)N(CC(=O)OC)C(=O)[C@H]12 8.91 µM [activator, partial curve]
COC(=O)c1sccc1-c1ccc(C(=O)Nc2cccnc2)o1 10 µM [inhibitor, partial curve]
COc1cccc2cc(C(=O)Oc3ccccc3)c(=O)oc12 35.5 µM [inhibitor, single point]

Already shown: two of the compounds above.
Potency, inconclusive:
COc1ccc(Oc2ncc3nc(C)c(=O)n(Cc4ccc(F)cc4)c3n2)cc1 11.2 µM [activator, partial curve, poor fit]
Cc1ccc(NC(=O)C2CCN(c3ncnc4c3nc3n4CCCCC3)CC2)cc1Cl 20 µM [activator, single point]
